{"source": "patent US11021711B2", "about": "“Genetic variations associated with drug resistance” (GENENTECH, Inc., priority 2008, dated 2021)", "test_system": "ABCC3-overexpressing EVSA-T cells", "test": "ATP-based luminescence viability assay, ABCC3-overexpressing EVSA-T clones", "design": "species or system human", "settings": "all three overexpressing cell lines vs vector-alone control", "from_the_text": "The control cell line in FIG. 5 is in fact a clone of EVSA-T derived after transfection with an empty vector and in the particular experiment shown achieved an IC50.\nFor ABCC3 overexpression experiments a full length ABCC3 cDNA cloned in the CMV promoter containing vector pCMV5 (Invitrogen, Carlsbad, Calif.) was verified by sequencing the entire coding sequence. The construct was transfected into EVSA-T cells and stable clones were selected by growth in lmg/ml geneticin (Invitrogen Carlsbad, Calif.). Overexpression of ABCC3 in stable clones was confirmed by qRT-PCR on cDNA derived from lines containing pCMV5-ABCC3, pCMV5 vector alone, or the parental EVSA-T strain. All stable cell lines described in this report were determined in qRT-PCR experiments to express at least 25-35× more ABCC3 transcript than vector control lines or the parental cell line.\nThree independently derived lines were confirmed to overexpress ABCC3 transcripts and screened for in vitro sensitivity to paclitaxel and MMAE using an ATP-based luminescence assay. […] The EC50 for the vector control treated with paclitaxel was 0.2 nM while the EC50 values for the ABCC3-expressing lines were 5 nM, 10 nM, and 80 nM, respectively.\nEVSA-T cells were stably transfected with an ABCC3 containing plasmid where ABCC3 is expressed at high levels from a cytomegalovirus (CMV) promoter. Overexpression of ABCC3 was confirmed by qRT-PCR.", "note": "Some of these results come from one statement about several compounds together."}
{"molecule": "CC(=O)O[C@H]1C(=O)[C@@]2(C)[C@H]([C@H](OC(=O)c3ccccc3)[C@]3(O)C[C@H](OC(=O)[C@H](O)[C@@H](NC(=O)c4ccccc4)c4ccccc4)C(C)=C1C3(C)C)[C@]1(OC(C)=O)CO[C@@H]1C[C@@H]2O", "note": "[paclitaxel]", "values": [{"measurement": "fold less sensitive based on EC50 values", "result": "at least 20 fold"}]}
